Here are results for 4 compounds from patent US10933039B2, “Coolant mixtures” (Symrise AG, priority 2016, dated 2021).

No dose or concentration is given here for some results.

The data set is described as follows: Sensory evaluation of coolant mixtures by a panel of 5 trained testers (cooling effect and flavor profile) in a standard chewy candy preparation. The class given is in vivo. To be noted: panel score (5)=very true to (0)=largely not true; mean values of 5 trained testers; unsweetened, non-aromatized standard chewy candy preparation. The method, then: The cooling effect and flavor profile of various coolant mixtures were evaluated by a panel consisting of 5 trained testers. For this purpose, the mixtures were incorporated into an unsweetened and non-aromatized standard chewy candy preparation. The evaluation was reported according to the notation (5)=very true to (0)=largely not true. Data are mean values.
For `CC(C)C=O` [C1, Isobutyraldehyde], the Bitter taste was 2.0, the Pungent taste is 4.0 and the Stinging taste worked out at 4.0.

`CC(C)CC=O` [C2, Isovaleraldehyde]: the Bitter taste is 2.0, the Pungent taste is listed as 4.0 and the Stinging taste is 4.0.

On to `CC(C)C(=O)O` [C3, Isobutyric acid], for which the Bitter taste worked out at 2.0, the Pungent taste amounted to 3.9 and the Stinging taste is reported as 4.0.

For the compound `CC(C)CC(=O)O` [C4, Isovaleric acid], the Bitter taste stood at 1.8, the Pungent taste was 3.8 and the Stinging taste came to 4.0.
